Some of the results follow. Values are raw readings; no control value is given beside them.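 First-pass screen: polymyxin B was added at a level that permeabilizes the Salmonella outer membrane while sparing the inner membrane. DMSO wells, with and without polymyxin B, defined maximum growth. Because plates differed from one another, each plate's data were ranked separately and the compounds with the lowest OD600 were carried forward as hits.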
Tested on: Salmonella enterica serovar Typhimurium SL1344
Experiment: bacterial growth OD600 after 18 h with compound and polymyxin B; higher = more bacterial growth (less inhibition)
Details: 50 µM, Mueller-Hinton broth

Row | Compound | bacterial growth OD600 (polymyxin B 1 µg/mL) | bacterial growth OD600 (polymyxin B 0.75 µg/mL)
1 | COC(=O)c1ccc(CN2CCN(CC3CCCCC3)C(CCO)C2)cc1 (centres undefined) | 0.939 | –
2 | COc1ccc(CNC(=O)c2cc(NC(=O)CC3CCCC3)cc3nc(C4CCCO4)n(C)c23)cc1 (centres undefined) | – | 0.811
3 | Cc1c(CC(=O)NC(C)C2CC2)c2c(n1Cc1ccccc1F)CCCC2=O (centres undefined) | 0.487 | –
4 | O=C(c1ccccc1-n1cccn1)N1CCCC(Nc2ccc3c(c2)OCCO3)C1 (centres undefined) | 0.911 | –
5 | CCc1nc2cc(C(=O)N3C[C@@H](C)O[C@@H](C)C3)cc(NC(=O)c3ccccc3OC)c2n1C | – | 0.867
6 | Cc1nc(C)c(CN2CCCC2C(=O)Nc2ccc(-c3cscn3)cc2)nc1C (centres undefined) | – | 0.956
7 | Cc1cnc(C(=O)N2CCCC(C(=O)c3ccc4c5c(cccc35)CC4)C2)cn1 (centres undefined) | 0.761 | –
8 | CC(C)CCC1(C2CCN(C(=O)CCc3cccs3)CC2)NC(=O)N(Cc2ccccn2)C1=O (centres undefined) | – | 0.896
9 | CCC(NC(=O)c1cc(Cn2c(C)nc3ccccc32)[nH]n1)c1ccncc1 (centres undefined) | 1 | –
10 | CCOC(=O)C1(Cc2ccc(F)cc2)CCCN(C(=O)CC)C1 (centres undefined) | 0.899 | –
11 | COCCn1cnc2cc(NC(=O)C3CCCCC3)cc(C(=O)N(C)CCn3nc(C)cc3C)c21 | – | 0.979
12 | Cc1cc(N2CCN(C(=O)C3CCC(=O)N(CC4CCCCC4)C3)CC2)cc(C)n1 (centres undefined) | 0.88 | –
13 | CCN(CCn1cccn1)C(=O)c1cc(COc2ccc(OC)c3ccccc23)on1 | 0.245 | –
14 | Cc1cc(C)n(CCN(C)C(=O)CC2(c3cccc(C(F)(F)F)c3)CC(=O)N(C3CC3)C2=O)n1 (centres undefined) | – | 0.79
15 | Cc1cc(C(=O)N2CCC(n3nccc3NC(=O)c3ccc4c(c3)OCO4)CC2)nn1C | 0.907 | –
16 | COC(=O)c1ccc(CNC(=O)CCC2(Cc3ccc(F)c(OC)c3)CCC(=O)N2)cc1 (centres undefined) | – | 1.01
17 | CN(C)S(=O)(=O)NCc1cccnc1Oc1ccccc1F | 0.859 | –
18 | CC(C)NC(=O)C1CCN(C2CCN(Cc3cc(CN4CCCCC4)cs3)CC2)CC1 | 1.08 | –
19 | COc1ccc(CN(C)C2CCCN(CCc3ccccc3)C2)cc1Cn1cncn1 (centres undefined) | 0.955 | –
20 | COc1ccc(OC2CCN(C(=O)CCC3(Cc4ccc(Cl)cc4)CCC(=O)N3)CC2)cc1 (centres undefined) | – | 0.703
21 | CN(C)c1ncc2c(n1)CCCC2NC(=O)CCCN1CCCC1=O (centres undefined) | 0.906 | –
22 | CCN1CCCC1CNC(=O)CCC1CCN(Cc2csc(C(C)=O)c2)CC1 (centres undefined) | 0.722 | –
23 | CC1(C)CC(Nc2nc3nonc3nc2NC2CCCC2)CCO1 (centres undefined) | 0.797 | –
24 | CC1(C)Cc2nc(C(C)(C)C)ncc2C(NC(=O)c2cnccn2)C1 (centres undefined) | 1.03 | –
25 | O=C(CC1(c2ccc(-c3ccccc3)cc2)CC(=O)N(C2CC2)C1=O)N1CC[C@@H]2CCCC[C@H]2C1 (some centres undefined) | – | 0.007
26 | COc1ccccc1CN(C)C(=O)c1coc(COc2ccc(F)cc2)n1 | – | 0.893
27 | CCOC(=O)C1(Cc2cccc(OC)c2)CCN(Cc2cc(C(C)C)[nH]n2)CC1 | 0.827 | –
28 | CCCc1cc(CN(C)C(=O)C2CCC(=O)N(CCc3ccccn3)C2)n[nH]1 (centres undefined) | 0.854 | –
29 | CCN1CCN(C(=O)c2ccc(N3CCC(N(C)Cc4nc(-c5ccccc5)no4)CC3)cc2)CC1 | – | 0.917

A few values from the results shown:
For bacterial growth OD600 (polymyxin B 0.75 µg/mL), `COc1ccc(OC2CCN(C(=O)CCC3(Cc4ccc(Cl)cc4)CCC(=O)N3)CC2)cc1` (centres undefined) shows 0.703
For bacterial growth OD600 (polymyxin B 0.75 µg/mL), `COc1ccccc1CN(C)C(=O)c1coc(COc2ccc(F)cc2)n1` shows 0.893

From the supplement of paper PMC12889115
